Test results from the supplement of paper PMC10849652.
This is one part of the list.

Protein sequences, listed by entry. Tags and fused reporters are not part of them. Lines headed by an entry give the natural chain unless they say otherwise; changes in a name come on top.
UniProt Q93052: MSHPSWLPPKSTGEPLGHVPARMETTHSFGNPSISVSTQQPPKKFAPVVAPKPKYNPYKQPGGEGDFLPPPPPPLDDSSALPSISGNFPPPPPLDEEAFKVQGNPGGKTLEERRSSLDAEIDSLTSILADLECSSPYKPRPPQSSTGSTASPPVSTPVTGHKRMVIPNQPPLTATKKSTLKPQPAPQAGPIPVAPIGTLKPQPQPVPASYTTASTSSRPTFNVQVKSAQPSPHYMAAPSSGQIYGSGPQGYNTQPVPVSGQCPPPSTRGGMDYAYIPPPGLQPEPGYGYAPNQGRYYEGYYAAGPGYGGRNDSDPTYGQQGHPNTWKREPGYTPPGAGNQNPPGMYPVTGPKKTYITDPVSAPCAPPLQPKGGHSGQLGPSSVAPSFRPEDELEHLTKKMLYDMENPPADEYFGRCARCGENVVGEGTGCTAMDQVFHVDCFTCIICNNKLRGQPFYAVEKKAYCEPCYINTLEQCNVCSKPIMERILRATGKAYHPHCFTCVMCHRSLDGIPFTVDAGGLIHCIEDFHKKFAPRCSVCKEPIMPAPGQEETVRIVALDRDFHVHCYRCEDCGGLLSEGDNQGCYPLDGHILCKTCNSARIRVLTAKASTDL
UniProt Q6ZV70: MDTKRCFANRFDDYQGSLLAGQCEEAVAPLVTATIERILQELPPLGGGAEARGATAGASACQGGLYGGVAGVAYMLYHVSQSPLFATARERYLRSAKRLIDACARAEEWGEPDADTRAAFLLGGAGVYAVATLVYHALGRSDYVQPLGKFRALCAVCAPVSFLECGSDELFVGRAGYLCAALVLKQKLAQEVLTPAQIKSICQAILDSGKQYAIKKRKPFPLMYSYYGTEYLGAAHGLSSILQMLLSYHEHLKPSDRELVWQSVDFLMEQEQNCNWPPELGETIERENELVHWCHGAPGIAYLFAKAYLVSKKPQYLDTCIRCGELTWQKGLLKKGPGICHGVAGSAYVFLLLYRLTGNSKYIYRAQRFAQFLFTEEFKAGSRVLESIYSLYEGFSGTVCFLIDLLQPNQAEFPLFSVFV
UniProt A6NK58: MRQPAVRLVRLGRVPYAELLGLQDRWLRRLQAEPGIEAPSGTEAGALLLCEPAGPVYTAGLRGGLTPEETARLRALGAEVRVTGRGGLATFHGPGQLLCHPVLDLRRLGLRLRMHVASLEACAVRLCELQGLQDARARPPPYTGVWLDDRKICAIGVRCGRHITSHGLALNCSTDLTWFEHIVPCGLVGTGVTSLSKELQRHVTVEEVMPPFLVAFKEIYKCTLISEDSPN
UniProt O00214: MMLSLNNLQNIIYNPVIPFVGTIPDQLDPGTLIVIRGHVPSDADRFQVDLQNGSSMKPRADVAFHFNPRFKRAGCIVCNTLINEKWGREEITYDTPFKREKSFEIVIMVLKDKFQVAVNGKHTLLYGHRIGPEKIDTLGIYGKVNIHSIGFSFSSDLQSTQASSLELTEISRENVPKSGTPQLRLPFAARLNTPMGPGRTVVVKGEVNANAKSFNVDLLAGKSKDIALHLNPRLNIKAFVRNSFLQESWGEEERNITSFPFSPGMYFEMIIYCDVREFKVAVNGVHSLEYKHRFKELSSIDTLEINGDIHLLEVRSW
UniProt P61968: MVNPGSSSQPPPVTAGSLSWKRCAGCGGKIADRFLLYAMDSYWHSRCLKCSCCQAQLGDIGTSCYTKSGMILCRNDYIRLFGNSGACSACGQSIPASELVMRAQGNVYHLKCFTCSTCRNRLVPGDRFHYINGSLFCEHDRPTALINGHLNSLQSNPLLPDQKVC
UniProt Q53QV2: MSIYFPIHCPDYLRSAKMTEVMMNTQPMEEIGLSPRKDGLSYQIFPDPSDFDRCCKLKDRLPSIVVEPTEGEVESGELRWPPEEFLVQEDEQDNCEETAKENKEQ
UniProt O95214: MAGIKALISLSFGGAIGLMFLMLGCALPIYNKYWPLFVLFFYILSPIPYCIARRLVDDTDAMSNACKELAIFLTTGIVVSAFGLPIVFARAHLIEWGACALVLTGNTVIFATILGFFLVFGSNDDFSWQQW
UniProt Q6P1M3: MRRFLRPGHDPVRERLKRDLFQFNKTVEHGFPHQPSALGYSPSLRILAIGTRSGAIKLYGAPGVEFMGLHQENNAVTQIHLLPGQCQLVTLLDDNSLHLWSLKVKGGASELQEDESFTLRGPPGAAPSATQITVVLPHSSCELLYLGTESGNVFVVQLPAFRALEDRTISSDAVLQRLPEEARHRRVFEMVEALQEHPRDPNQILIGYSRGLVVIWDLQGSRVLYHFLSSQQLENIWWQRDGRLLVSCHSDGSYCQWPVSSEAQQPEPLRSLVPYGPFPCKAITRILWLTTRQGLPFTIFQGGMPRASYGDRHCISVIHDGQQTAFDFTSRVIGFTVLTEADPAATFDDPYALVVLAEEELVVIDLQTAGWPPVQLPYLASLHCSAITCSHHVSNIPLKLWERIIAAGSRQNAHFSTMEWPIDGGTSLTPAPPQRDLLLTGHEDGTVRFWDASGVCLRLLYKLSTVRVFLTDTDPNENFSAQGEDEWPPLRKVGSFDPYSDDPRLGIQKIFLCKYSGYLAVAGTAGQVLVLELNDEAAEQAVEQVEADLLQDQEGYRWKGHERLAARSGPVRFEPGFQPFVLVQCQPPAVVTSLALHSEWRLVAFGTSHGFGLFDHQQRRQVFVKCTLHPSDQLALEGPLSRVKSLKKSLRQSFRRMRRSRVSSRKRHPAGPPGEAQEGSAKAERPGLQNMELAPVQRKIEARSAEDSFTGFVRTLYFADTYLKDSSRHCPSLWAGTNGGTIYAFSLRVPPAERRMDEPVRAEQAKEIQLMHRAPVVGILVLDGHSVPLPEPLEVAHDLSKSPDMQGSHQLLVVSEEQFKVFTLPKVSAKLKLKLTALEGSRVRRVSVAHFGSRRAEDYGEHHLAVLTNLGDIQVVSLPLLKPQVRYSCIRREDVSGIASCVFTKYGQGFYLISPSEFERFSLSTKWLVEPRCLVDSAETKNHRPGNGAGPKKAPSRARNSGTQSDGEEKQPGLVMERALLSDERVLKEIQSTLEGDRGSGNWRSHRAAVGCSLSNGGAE
UniProt Q9BQD3: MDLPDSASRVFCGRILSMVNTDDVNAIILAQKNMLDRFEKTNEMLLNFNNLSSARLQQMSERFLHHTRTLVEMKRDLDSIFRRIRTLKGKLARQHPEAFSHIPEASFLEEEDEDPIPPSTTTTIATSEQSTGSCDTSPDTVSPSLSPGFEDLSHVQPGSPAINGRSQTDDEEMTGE
UniProt Q5SW96: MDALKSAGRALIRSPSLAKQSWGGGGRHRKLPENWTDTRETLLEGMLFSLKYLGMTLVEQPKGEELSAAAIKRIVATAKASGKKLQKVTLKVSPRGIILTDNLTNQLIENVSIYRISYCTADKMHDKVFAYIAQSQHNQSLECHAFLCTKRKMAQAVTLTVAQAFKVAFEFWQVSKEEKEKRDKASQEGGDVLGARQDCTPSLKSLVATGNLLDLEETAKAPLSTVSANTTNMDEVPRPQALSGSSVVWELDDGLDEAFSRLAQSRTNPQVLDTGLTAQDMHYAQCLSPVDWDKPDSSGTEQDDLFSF
UniProt P13473: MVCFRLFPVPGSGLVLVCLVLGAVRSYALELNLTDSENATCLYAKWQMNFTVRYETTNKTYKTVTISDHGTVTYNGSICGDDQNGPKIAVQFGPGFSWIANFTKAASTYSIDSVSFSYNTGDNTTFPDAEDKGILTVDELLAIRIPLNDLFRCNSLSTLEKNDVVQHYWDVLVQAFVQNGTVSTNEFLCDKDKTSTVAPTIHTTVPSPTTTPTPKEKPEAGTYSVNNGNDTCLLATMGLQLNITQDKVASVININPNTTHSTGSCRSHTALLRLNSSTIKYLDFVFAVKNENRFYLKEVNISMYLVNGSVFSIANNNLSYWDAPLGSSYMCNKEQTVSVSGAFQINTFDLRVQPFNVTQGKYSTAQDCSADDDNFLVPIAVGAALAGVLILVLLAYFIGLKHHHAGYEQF
UniProt O75197: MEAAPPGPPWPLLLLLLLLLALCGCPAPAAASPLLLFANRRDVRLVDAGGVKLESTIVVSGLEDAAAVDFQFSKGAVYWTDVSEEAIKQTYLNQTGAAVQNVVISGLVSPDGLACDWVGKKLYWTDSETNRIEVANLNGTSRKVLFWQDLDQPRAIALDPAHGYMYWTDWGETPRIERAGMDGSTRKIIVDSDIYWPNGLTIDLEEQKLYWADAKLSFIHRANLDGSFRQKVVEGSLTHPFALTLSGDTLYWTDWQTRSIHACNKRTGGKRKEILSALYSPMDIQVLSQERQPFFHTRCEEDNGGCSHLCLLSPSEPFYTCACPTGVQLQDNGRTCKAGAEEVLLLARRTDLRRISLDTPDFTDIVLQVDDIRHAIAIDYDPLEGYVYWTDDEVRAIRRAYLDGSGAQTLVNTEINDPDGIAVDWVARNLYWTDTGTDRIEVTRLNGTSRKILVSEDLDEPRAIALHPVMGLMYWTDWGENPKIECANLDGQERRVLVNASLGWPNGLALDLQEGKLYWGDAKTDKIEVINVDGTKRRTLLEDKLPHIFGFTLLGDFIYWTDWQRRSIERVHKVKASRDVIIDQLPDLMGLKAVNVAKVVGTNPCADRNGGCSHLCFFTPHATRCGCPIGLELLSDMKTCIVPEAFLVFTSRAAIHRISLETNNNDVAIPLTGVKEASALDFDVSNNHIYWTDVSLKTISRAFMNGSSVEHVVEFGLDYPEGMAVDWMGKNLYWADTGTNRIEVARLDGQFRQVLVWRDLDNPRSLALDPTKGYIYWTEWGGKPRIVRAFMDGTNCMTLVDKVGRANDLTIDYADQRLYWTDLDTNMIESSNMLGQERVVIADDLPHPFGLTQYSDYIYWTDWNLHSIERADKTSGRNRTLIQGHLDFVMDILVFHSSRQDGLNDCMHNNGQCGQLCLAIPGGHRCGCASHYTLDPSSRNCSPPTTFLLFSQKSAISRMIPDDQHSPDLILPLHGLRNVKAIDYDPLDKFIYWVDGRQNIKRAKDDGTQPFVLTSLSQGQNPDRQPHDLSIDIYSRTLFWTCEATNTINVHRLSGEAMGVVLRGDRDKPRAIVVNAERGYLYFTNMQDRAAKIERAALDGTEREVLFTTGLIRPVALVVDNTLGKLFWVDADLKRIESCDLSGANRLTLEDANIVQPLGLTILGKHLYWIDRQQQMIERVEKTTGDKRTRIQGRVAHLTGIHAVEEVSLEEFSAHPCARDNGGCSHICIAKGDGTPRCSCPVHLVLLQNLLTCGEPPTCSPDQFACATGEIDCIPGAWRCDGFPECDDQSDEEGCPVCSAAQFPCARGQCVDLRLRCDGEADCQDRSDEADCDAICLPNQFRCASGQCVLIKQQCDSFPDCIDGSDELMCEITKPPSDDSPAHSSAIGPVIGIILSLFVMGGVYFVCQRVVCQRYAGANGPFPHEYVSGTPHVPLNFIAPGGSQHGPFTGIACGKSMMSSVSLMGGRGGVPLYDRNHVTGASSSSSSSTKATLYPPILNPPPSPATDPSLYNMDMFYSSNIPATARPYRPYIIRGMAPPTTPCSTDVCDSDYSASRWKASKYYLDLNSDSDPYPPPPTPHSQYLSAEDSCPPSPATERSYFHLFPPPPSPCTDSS
UniProt Q15048: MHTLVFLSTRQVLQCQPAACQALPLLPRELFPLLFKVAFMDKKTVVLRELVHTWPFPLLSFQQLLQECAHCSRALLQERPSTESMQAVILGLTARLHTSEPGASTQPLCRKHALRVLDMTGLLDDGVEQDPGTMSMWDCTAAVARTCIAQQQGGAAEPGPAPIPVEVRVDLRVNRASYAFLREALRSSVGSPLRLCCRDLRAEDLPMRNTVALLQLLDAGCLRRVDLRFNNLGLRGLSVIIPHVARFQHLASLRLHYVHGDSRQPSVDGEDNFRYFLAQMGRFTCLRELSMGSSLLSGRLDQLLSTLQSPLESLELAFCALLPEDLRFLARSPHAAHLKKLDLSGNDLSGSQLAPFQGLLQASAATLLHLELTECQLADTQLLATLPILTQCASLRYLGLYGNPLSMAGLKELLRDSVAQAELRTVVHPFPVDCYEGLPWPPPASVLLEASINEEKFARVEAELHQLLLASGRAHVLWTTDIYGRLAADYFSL
UniProt Q6ZUX7: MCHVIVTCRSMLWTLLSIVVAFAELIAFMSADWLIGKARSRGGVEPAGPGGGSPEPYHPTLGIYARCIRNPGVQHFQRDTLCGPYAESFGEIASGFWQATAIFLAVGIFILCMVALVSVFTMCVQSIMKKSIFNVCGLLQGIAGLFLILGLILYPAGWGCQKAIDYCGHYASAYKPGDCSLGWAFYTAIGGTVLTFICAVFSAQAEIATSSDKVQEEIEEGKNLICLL
UniProt P48059, whole entry, looked up: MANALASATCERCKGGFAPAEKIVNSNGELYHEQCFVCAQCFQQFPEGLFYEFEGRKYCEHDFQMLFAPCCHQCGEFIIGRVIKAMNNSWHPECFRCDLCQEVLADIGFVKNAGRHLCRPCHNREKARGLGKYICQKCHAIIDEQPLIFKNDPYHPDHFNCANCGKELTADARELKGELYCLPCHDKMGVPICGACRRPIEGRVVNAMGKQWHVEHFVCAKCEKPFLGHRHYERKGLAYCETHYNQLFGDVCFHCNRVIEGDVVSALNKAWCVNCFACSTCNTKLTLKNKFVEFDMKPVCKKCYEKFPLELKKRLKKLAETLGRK

compound: CC1=C(C=C(C=C1)NC(=O)C2=CC(=CC=C2)C(C)(C)C#N)NC3=CC4=C(C=C3)N=CN(C4=O)C; assay: log2 fold change, soluble protein after heating vs DMSO (PISA); higher = thermal stabilisation; K562 cells, 10 uM, 30 min; active = over 0.2 and 3.5 SD of the protein, either way, in both replicates (recomputed)
How it was run: (§1)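 K562 cells at 2×10^6 cells/mL were treated with 10 μM compound for 30 min. Aliquots were heated for 3 min across 48°C-58°C, pooled, and extracted in PBS with 0.5% NP-40 at 4°C; soluble protein was the supernatant after 21,000xg for 90 min. Soluble protein was quantified by TMTpro 16plex LC-MS/MS with channel sums equalised, and reported as log2 fold change in thermal stability against DMSO controls, with values from duplicates.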

Row | Target | log2 fold change
1 | LPP (UniProt Q93052) | inactive: -0.276
2 | LIG4 (UniProt P49917) | inactive: 0.073
3 | LANCL3 (UniProt Q6ZV70) | inactive: -0.175
4 | LIPT2 (UniProt A6NK58) | inactive: 0.202
5 | LDHC (UniProt P07864) | inactive: -0.144
6 | LIN28A (UniProt Q9H9Z2) | inactive: -0.117
7 | LAPTM4B (UniProt Q86VI4) | inactive: 0
8 | LGALS8 isoform 2 (UniProt O00214) | inactive: 0.01

compound: CC1=C(C=C(C=C1)NC(=O)C2=CC(=CC=C2)N(C)C)NC(=O)C3=CC=C(C=C3)O; assay: as above
How it was run: as §1

Row | Target | log2 fold change
9 | LMO4 (UniProt P61968) | inactive: -0.052
10 | LBH (UniProt Q53QV2) | inactive: 0.094
11 | LGALS3 (UniProt P17931) | inactive: -0.039
12 | LEPROTL1 isoform 2 (UniProt O95214) | inactive: 0.161
13 | LRMP (UniProt Q12912) | inactive: -0.009
14 | LLGL2 (UniProt Q6P1M3) | inactive: -0.011
15 | LAMB2 (UniProt P55268) | inactive: 0.033
16 | LAPTM5 (UniProt Q13571) | inactive: 0.02
17 | KXD1 (UniProt Q9BQD3) | inactive: -0.025
18 | LDLRAP1 (UniProt Q5SW96) | inactive: -0.028
19 | LRRC42 (UniProt Q9Y546) | inactive: -0.022

compound: CC1=CC=C(C=C1)SC2=C3C=C(SC3=CN=C2)C(=O)N; assay: as above
How it was run: as §1

Row | Target | log2 fold change
20 | LMO4 (UniProt P61968) | inactive: -0.099
21 | LBH (UniProt Q53QV2) | inactive: 0.151
22 | LEPROTL1 isoform 2 (UniProt O95214) | inactive: 0.205
23 | LAMP2 isoform 2 (UniProt P13473) | inactive: -0.07
24 | LRP5 (UniProt O75197) | inactive: -0.03
25 | LLGL2 (UniProt Q6P1M3) | inactive: -0.075
26 | LAMB2 (UniProt P55268) | inactive: -0.181
27 | LRRC14 (UniProt Q15048) | inactive: -0.105
28 | LMLN isoform 3 (UniProt Q96KR4) | inactive: -0.053
29 | LGMN (UniProt Q99538) | inactive: 0.106
30 | KXD1 (UniProt Q9BQD3) | inactive: 0
31 | LHFPL2 (UniProt Q6ZUX7) | inactive: -0.053

compound: CC1=NC(=CC=C1)C2=C(N=C(N2)C(C)(C)C)C3=CC4=NC=CN=C4C=C3; assay: as above
How it was run: as §1

Row | Target | log2 fold change
32 | LMO4 (UniProt P61968) | inactive: 0.026
33 | LPP (UniProt Q93052) | inactive: 0.223
34 | LANCL3 (UniProt Q6ZV70) | inactive: 0.055
35 | LEPROTL1 isoform 2 (UniProt O95214) | inactive: -0.065
36 | L1TD1 (UniProt Q5T7N2) | inactive: 0.008
37 | LAMP2 isoform 2 (UniProt P13473) | inactive: 0.003
38 | LGALSL (UniProt Q3ZCW2) | inactive: 0.088
39 | LLGL2 (UniProt Q6P1M3) | inactive: -0.047
40 | LRRC14 (UniProt Q15048) | inactive: 0.021
41 | LPCAT4 (UniProt Q643R3) | inactive: 0.145
42 | LDLRAP1 (UniProt Q5SW96) | inactive: -0.102
43 | LIMS1 (UniProt P48059) | inactive: 0.022
44 | LGALS8 isoform 2 (UniProt O00214) | inactive: -0.228

compound: CCCCN(Cc1ccc(C(=O)NO)cc1)C(=O)Nc1ccccc1 [Nexturastat A]; assay: as above
How it was run: as §1

Row | Target | log2 fold change
45 | LBH (UniProt Q53QV2) | inactive: -0.089
46 | LPP (UniProt Q93052) | inactive: 0.006
47 | LANCL3 (UniProt Q6ZV70) | inactive: -0.203
48 | LRP1 (UniProt Q07954) | inactive: -0.061
49 | LIPT2 (UniProt A6NK58) | inactive: -0.168
50 | LAMP2 isoform 2 (UniProt P13473) | inactive: -0.015
51 | LAMA5 (UniProt O15230) | inactive: 0.174
52 | LRP5 (UniProt O75197) | inactive: 0.07
53 | LLGL2 (UniProt Q6P1M3) | inactive: 0.009
54 | LMLN isoform 3 (UniProt Q96KR4) | inactive: 0.127
55 | LDHC (UniProt P07864) | inactive: 0.443
56 | KXD1 (UniProt Q9BQD3) | inactive: -0.223
57 | LOR (UniProt P23490) | inactive: 0.236
58 | LGALS3BP (UniProt Q08380) | inactive: -0.042
59 | LPCAT4 (UniProt Q643R3) | inactive: 0.047
60 | LEPROT (UniProt O15243) | inactive: -0.02
61 | LGALS8 isoform 2 (UniProt O00214) | inactive: 0.288
62 | LHFPL2 (UniProt Q6ZUX7) | inactive: -0.052

compound: CCCS(=O)(=O)Nc1ccc(F)c(C(=O)c2c[nH]c3ncc(-c4ccc(Cl)cc4)cc23)c1F [vemurafenib]; assay: as above
How it was run: as §1

Row | Target | log2 fold change
63 | LIG4 (UniProt P49917) | inactive: 0.128
64 | LRP1 (UniProt Q07954) | inactive: -0.084
65 | LEPROTL1 isoform 2 (UniProt O95214) | inactive: -0.169
66 | LIPT2 (UniProt A6NK58) | inactive: -0.135
67 | LAMP2 isoform 2 (UniProt P13473) | inactive: -0.082
68 | LAMA5 (UniProt O15230) | inactive: -0.396
69 | LRP5 (UniProt O75197) | inactive: 0.001
70 | LRRC14 (UniProt Q15048) | inactive: -0.1
71 | KXD1 (UniProt Q9BQD3) | inactive: 0.092
72 | LGALS8 isoform 2 (UniProt O00214) | inactive: -0.013
73 | LRRC42 (UniProt Q9Y546) | inactive: -0.146
74 | LHFPL2 (UniProt Q6ZUX7) | inactive: -0.125
